# Measurements: the supplement of paper PMC8728848
# The other results are listed elsewhere or left out.
# B1: cFel (Cyprinus carpio), P68512 (protein)
# chain: LDCTVIDGNLKQIDAGSGSVVGVNNLNETFVLIDNVFTKISGSLKHFSVGPAGQLGVNTANNIFKYQSGGFVQLAGLLKQVDAGGDQIIAGVNMYDDIYCLNMDANNKWPSSNTPWVQINGKLKYYSCGPYSCWGVNSNDQIFIMKDVSSNVCSGSGSFINIPGLLSMIEVATDGSVFGVNSQGNLYQRTGVTRSKPDGTDWISMVACPNGHKHVSFDLGVLWLVCVDGSIRKCILTD
# Columns and labels:
# Test in all cases: glycan array binding signal (z-score within array); higher = stronger binding
# Conditions in all cases: glycan notation: IUPAC condensed, linker removed
# [1] = target: Gal6S(b1-4)Glc
# Method in brief: (§1)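 Glycan array data came from 3228 arrays in the Consortium for Functional Glycomics database, and only arrays with an available protein sequence were kept. Glycan names were put into IUPAC-condensed notation, and columns mapping to the same glycan were averaged. The binding signal is a within-array Z-score, averaged across arrays of one protein sequence run at different concentrations or buffers and across linkers. A negative Z-score can be read as non-binding.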
# [2] = target: Gal6S(b1-4)Glc6S
# Method in brief: as §1
# [3] = target: Gal6S(b1-4)GlcNAc
# Method in brief: as §1
# [4] = target: Gal6S(b1-4)GlcNAc6S
# Method in brief: as §1
# [5] = target: GalNAc(a1-3)Gal
# Method in brief: as §1
# [6] = target: GalNAc(a1-3)GalNAc
# Method in brief: as §1
# [7] = target: GalNAc(a1-3)GalNAc(b1-3)Gal(a1-4)Gal(b1-4)Glc
# Method in brief: as §1
# [8] = target: GalNAc(a1-3)GalNAc(b1-3)Gal(a1-4)Gal(b1-4)GlcNAc
# Method in brief: as §1
# [9] = target: GalNAc(b1-3)Gal
# Method in brief: as §1
# [10] = target: GalNAc(b1-3)Gal(a1-4)Gal(b1-4)GlcNAc
# Method in brief: as §1
# [11] = target: GalNAc(b1-3)Gal(a1-4)Gal(b1-4)GlcNAc(b1-3)Gal(b1-4)Glc
# Method in brief: as §1
# [12] = target: GalNAc(b1-3)Gal(a1-6)Gal(b1-4)Glc
# Method in brief: as §1
# [13] = target: GalNAc(b1-3)GalNAc
# Method in brief: as §1
# [14] = target: GalNAc(b1-3)GlcNAc
# Method in brief: as §1
# [15] = target: GalNAc(b1-4)Gal(b1-4)Glc
# Method in brief: as §1
# [16] = target: GalNAc(b1-4)GlcNAc
# Method in brief: as §1
# [17] = target: GalNAc(b1-4)GlcNAc(b1-2)Man
# Method in brief: as §1
# [18] = target: GalNAc(b1-4)GlcNAc(b1-2)Man(a1-3)[GalNAc(b1-4)GlcNAc(b1-2)Man(a1-6)]Man(b1-4)GlcNAc(b1-4)GlcNAc
# Method in brief: as §1
# [19] = target: GalNAc(b1-4)GlcNAc(b1-3)GalNAc(b1-4)GlcNAc
# Method in brief: as §1
# [20] = target: GalNAc(b1-4)GlcNAc6S
# Method in brief: as §1
# [21] = target: GalNAc(b1-6)GalNAc
# Method in brief: as §1
# [22] = target: GalNAc3S(b1-4)GlcNAc
# Method in brief: as §1
# [23] = target: GalNAc3S(b1-4)GlcNAc3S
# Method in brief: as §1
# [24] = target: GalNAc3S(b1-4)[Fuc(a1-3)]GlcNAc
# Method in brief: as §1
# [25] = target: GalNAc4S6S(b1-4)GlcNAc
# Method in brief: as §1
# [26] = target: GalNAc6S(b1-4)GlcNAc
# Method in brief: as §1
# [27] = target: Glc(a1-4)Glc
# Method in brief: as §1
# [28] = target: Glc(a1-4)Glc(a1-4)Glc(a1-4)Glc
# Method in brief: as §1
# [29] = target: Glc(a1-6)Glc(a1-6)Glc
# Method in brief: as §1
# [30] = target: Glc(a1-6)Glc(a1-6)Glc(a1-6)Glc
# Method in brief: as §1
# [31] = target: Glc(b1-4)Glc
# Method in brief: as §1
# [32] = target: Glc(b1-6)Glc
# Method in brief: as §1
# [33] = target: GlcA(b1-3)Gal
# Method in brief: as §1
# [34] = target: GlcA(b1-3)GlcNAc
# Method in brief: as §1
# [35] = target: GlcA(b1-6)Gal
# Method in brief: as §1
# [36] = target: GlcA3S(b1-3)Gal(b1-4)GlcNAc(b1-2)Man
# Method in brief: as §1
# [37] = target: GlcA3S(b1-3)Gal(b1-4)GlcNAc(b1-3)Gal(b1-4)Glc
# Method in brief: as §1
# [38] = target: GlcNAc(a1-3)Gal(b1-4)GlcNAc
# Method in brief: as §1
# [39] = target: GlcNAc(a1-4)Gal(b1-3)GlcNAc
# Method in brief: as §1
# [40] = target: GlcNAc(a1-4)Gal(b1-4)GalNAc
# Method in brief: as §1
# [41] = target: GlcNAc(a1-4)Gal(b1-4)GlcNAc
# Method in brief: as §1
# [42] = target: GlcNAc(a1-4)Gal(b1-4)GlcNAc(b1-3)Gal(b1-4)Glc
# Method in brief: as §1
# [43] = target: GlcNAc(a1-4)Gal(b1-4)GlcNAc(b1-3)Gal(b1-4)GlcNAc
# Method in brief: as §1
# [44] = target: GlcNAc(a1-4)Gal(b1-4)GlcNAc(b1-3)Gal(b1-4)GlcNAc(b1-3)Gal(b1-4)GlcNAc
# Method in brief: as §1
# [45] = target: GlcNAc(a1-4)Gal(b1-4)GlcNAc(b1-3)Gal(b1-4)[Fuc(a1-3)]GlcNAc(b1-3)Gal(b1-4)[Fuc(a1-3)]GlcNAc
# Method in brief: as §1
binder,measurement,setting,value
B1,glycan array binding signal (z-score),[1],0.048
same,glycan array binding signal (z-score),[2],-0.08
same,glycan array binding signal (z-score),[3],-0.727
same,glycan array binding signal (z-score),[4],-1.31
same,glycan array binding signal (z-score),[5],0.811
same,glycan array binding signal (z-score),[6],-0.516
same,glycan array binding signal (z-score),[7],-0.692
same,glycan array binding signal (z-score),[8],-0.361
same,glycan array binding signal (z-score),[9],0.381
same,glycan array binding signal (z-score),[10],4.96
same,glycan array binding signal (z-score),[11],-0.955
same,glycan array binding signal (z-score),[12],0.724
same,glycan array binding signal (z-score),[13],-0.776
same,glycan array binding signal (z-score),[14],-0.979
same,glycan array binding signal (z-score),[15],-0.762
same,glycan array binding signal (z-score),[16],0.605
same,glycan array binding signal (z-score),[17],-0.598
same,glycan array binding signal (z-score),[18],1.66
same,glycan array binding signal (z-score),[19],-1.27
same,glycan array binding signal (z-score),[20],-0.823
same,glycan array binding signal (z-score),[21],2.47
same,glycan array binding signal (z-score),[22],-0.547
same,glycan array binding signal (z-score),[23],-0.289
same,glycan array binding signal (z-score),[24],-0.396
same,glycan array binding signal (z-score),[25],-0.77
same,glycan array binding signal (z-score),[26],-0.23
same,glycan array binding signal (z-score),[27],0.518
same,glycan array binding signal (z-score),[28],-0.245
same,glycan array binding signal (z-score),[29],-0.726
same,glycan array binding signal (z-score),[30],0.658
same,glycan array binding signal (z-score),[31],0.633
same,glycan array binding signal (z-score),[32],-0.521
same,glycan array binding signal (z-score),[33],-0.368
same,glycan array binding signal (z-score),[34],-0.97
same,glycan array binding signal (z-score),[35],0.627
same,glycan array binding signal (z-score),[36],0.428
same,glycan array binding signal (z-score),[37],-0.849
same,glycan array binding signal (z-score),[38],0.117
same,glycan array binding signal (z-score),[39],-0.902
same,glycan array binding signal (z-score),[40],0.672
same,glycan array binding signal (z-score),[41],-0.281
same,glycan array binding signal (z-score),[42],-0.623
same,glycan array binding signal (z-score),[43],-0.616
same,glycan array binding signal (z-score),[44],-0.344
same,glycan array binding signal (z-score),[45],-0.963

# Three entries from above in another layout.
binder	measurement	setting	value
B1	glycan array binding signal (z-score)	[5]	0.811
same	glycan array binding signal (z-score)	[6]	-0.516
same	glycan array binding signal (z-score)	[7]	-0.692
